Results taken from ChEMBL document CHEMBL1135202, “Design, synthesis and evaluation of 4-imidazolylflavans as new leads for aromatase inhibition” (Bioorg Med Chem Lett, 2002).

How the values were obtained:
Parameters in all cases: species or system Placenta
Aromatase [1] = target: T1, Aromatase (Homo sapiens, UniProt P11511); assay: Inhibition of aromatase activity in human placental microsomes
T1 sequence (P11511 whole entry): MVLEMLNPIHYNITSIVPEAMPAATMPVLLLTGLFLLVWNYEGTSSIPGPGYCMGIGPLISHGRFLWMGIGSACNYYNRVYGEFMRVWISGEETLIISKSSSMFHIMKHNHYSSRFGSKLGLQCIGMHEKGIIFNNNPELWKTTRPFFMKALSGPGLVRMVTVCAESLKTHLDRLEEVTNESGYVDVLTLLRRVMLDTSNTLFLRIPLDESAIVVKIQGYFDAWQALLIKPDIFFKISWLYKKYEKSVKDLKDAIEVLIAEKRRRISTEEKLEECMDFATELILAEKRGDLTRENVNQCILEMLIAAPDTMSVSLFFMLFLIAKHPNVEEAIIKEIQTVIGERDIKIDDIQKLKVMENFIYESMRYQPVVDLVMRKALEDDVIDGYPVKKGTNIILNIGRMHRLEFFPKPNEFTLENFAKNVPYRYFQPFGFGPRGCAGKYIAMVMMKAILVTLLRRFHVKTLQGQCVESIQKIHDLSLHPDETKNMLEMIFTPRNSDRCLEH

Aromatase [2] = target: T1, Aromatase; assay: Relative potency for aromatase inhibition in human placental microsomes compared to flavanone
Aromatase [3] = target: T1, Aromatase; assay: Relative potency for aromatase inhibition in human placental microsomes compared to aminoglutethimide

Question: Which IC50 (Aromatase [1]) does the source give for `COc1ccc2c(c1)OC(c1ccccc1)CC2n1ccnc1` (stereo not drawn) here?
Answer: 91 nM

Question: And the Relative potency (Aromatase [2])?
Answer: 88

Question: And the Relative potency (Aromatase [3])?
Answer: 57
